PubChem BioAssay AID2685 (National Center for Advancing Translational Sciences (NCATS), 2010)
This is one part of the list. The main result of the screen is listed elsewhere. These columns were measured beside it and carry no call. Compounds called inactive in the main read-out are mostly missing here. Potencies come from curve fits of mixed quality, noted in brackets.

Experiment: qHTS Assay for Lipid Storage Modulators in Drosophila S3 Cells;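 on cell number change: cells counted by Cell Tracker Red CMTPX staining in the red channel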
Settings: BODIPY lipid droplet fluorescence, 18-24 h; for cell number change: measured here: cell count max response, cells fed with added oleic acid
How it was run: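 Drosophila S3 cells got compounds at several concentrations plus oleic acid (400 uM solution). Laser-scanning cytometry with 488 nm excitation read lipid droplets at 500-530 nm and cells at 575-640 nm. Percent activity was relative to 20 uM Triacsin C.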

[1] = measured here: lipid fluorescence (Fed channel) AC50, cells fed with added oleic acid
[2] = measured here: cell number channel AC50, cells fed with added oleic acid

| SMILES | cell number change | AC50 [1] | AC50 [2] |
| --- | --- | --- | --- |
| Cc1cccn2c(=O)c3cc(C(=O)NC4CCCCC4C)n(C)c3nc12 (configuration not stated) | 6.42% | 0.92 µM [falling, single point] |  |
| O=C(CC1SC(=Nc2ccc(OC(F)F)cc2)N(CCN2CCOCC2)C1=O)Nc1ccc(F)cc1F (configuration not stated) | 21.6% |  | 6.51 µM [rising, partial curve, poor fit] |
| CCN1C(=O)[C@H]2[C@@H](c3ccc(C)cc3)N3C(=O)N(c4ccc(C)cc4)C(=O)[C@@]3(CC)[C@H]2C1=O | 5.87% | 32.6 µM [rising, single point] |  |
| CCc1nn(C(C)C(=O)NCCc2ccc(OC)c(OC)c2)c(=O)c2cc3occc3n12 (configuration not stated) | -4.87% | 2.31 µM [rising, partial curve] |  |
| O=C(NCc1ccco1)c1cccc(NC(=O)c2ccccc2)c1 |  | 0.58 µM [rising, single point] | 1.3 µM [rising, full curve] |
| CCOc1ccc(C(=O)Nc2cc(S(=O)(=O)Nc3ccccc3Cl)ccc2N2CCOCC2)cc1 | -13.5% | 2.59 µM [rising, full curve] |  |
| CCNC(=O)c1ccccc1-c1nc(-c2ccccc2Cl)no1 | -1.45% | 5.8 µM [rising, single point] |  |
| N#CC1=C(N)OC2=C(C(=O)CCC2)C1c1ccc(OC(=O)N2CCOCC2)cc1 (configuration not stated) | 2.9% |  | 0.58 µM [falling, full curve] |
| Cc1ccc2[nH]c(=O)c(CN(Cc3cccs3)Cc3nnnn3Cc3ccccc3)cc2c1 | -4.28% |  |  |
| O=C(N/N=C/c1ccncc1)/C(=C/c1ccccc1)NC(=O)c1ccccc1 |  | 0.517 µM [rising, single point] |  |
| O=c1[nH]c2ccccc2n1C1=CCCC1 | 1.38% | 29.1 µM [rising, single point] |  |
| O=C(CSc1ncn[nH]1)Nc1ccc(Br)cc1F | -30.5% |  | 0.082 µM [falling, full curve, poor fit] |
| Cc1cccc(N(C(=O)c2csnn2)C(C(=O)NC2CCCC2)c2ccncc2)c1 (configuration not stated) | 9.24% |  |  |
| C/C(=N\NC(=O)c1ccc(F)cc1)c1ccc(NC(=O)Cc2ccccc2)cc1 | -7.65% | 6.51 µM [rising, single point] |  |
| O=C1OCCN1CCN(CN1C(=O)CCC1=O)CN1C(=O)CCC1=O | -11.9% | 25.9 µM [falling, partial curve, poor fit] |  |
| O=C(NCCCNC(=O)c1ccc(-c2cc(Cl)ccc2Cl)o1)c1cnccn1 | -55.3% |  | 16.4 µM [falling, single point] |
| O=C(Nc1ccccc1Cl)Oc1ccc(-c2ccccc2)cc1 | 46.8% | 29.1 µM [rising, partial curve, poor fit] | 13 µM [rising, partial curve] |

Single entries from above.
Value of `C/C(=N\NC(=O)c1ccc(F)cc1)c1ccc(NC(=O)Cc2ccccc2)cc1` under AC50 [1]: 6.51 µM [rising, single point]
Value of `CCNC(=O)c1ccccc1-c1nc(-c2ccccc2Cl)no1` under cell number change: -1.45%
